Source: PMC6449396
These are yes or no findings as the source states them, for the method shown. Binding seen in cells or lysates may run through a third protein. Binding can be weak; no strength is given. Where a sequence is shown, tags or fusion partners need not be part of it.

Key:
[1] = target: T1, MBP-Mad1 (full length) (human) (UniProt Q9Y6D9); test: pull-down; MBP constructs and PML constructs co-expressed in BL21 E. coli; lysate (50 mM HEPES pH 7.6, 100 mM NaCl, 1 mM DTT) treated with SUMO protease overnight at 4 °C, amylose resin 1 h at 4 °C, eluted with 10 mM maltose, immunoblot
T1 sequence: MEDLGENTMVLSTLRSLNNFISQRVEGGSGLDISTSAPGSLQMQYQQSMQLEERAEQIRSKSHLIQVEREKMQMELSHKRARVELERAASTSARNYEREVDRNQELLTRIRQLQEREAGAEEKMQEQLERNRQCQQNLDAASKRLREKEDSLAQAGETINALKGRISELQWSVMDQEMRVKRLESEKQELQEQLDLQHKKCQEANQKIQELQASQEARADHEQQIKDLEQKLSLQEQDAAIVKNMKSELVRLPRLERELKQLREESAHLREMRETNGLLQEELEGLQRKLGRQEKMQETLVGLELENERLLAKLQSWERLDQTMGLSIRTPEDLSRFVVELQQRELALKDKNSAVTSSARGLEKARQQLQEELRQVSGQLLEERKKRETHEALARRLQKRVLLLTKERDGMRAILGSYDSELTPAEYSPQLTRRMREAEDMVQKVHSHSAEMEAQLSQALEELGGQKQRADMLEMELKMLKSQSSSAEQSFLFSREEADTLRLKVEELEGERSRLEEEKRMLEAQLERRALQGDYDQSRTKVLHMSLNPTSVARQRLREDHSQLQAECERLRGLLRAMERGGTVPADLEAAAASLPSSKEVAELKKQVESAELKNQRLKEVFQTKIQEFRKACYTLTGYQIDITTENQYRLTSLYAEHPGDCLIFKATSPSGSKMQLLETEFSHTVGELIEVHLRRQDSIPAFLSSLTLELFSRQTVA

[2] = target: T2, MBP-Mad1(CTD) (human) (UniProt Q9Y6D9); test: as above
T2 sequence: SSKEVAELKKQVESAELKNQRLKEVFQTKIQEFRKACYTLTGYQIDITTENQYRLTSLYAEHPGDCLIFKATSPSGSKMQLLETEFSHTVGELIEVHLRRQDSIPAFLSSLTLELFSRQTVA

binding [1]: binds
binding [2]: binds
Substance: recombinant PML (from Smt3p-PML) (from UniProt P29590-5)
